# From PMC7819943, “Rice protein-binding microarrays: a tool to detect cis-acting elements near promoter regions in rice”
# Amino acid sequences for entries named in this document (tags omitted).
# UniProt Q0JBA9, entry or part of it: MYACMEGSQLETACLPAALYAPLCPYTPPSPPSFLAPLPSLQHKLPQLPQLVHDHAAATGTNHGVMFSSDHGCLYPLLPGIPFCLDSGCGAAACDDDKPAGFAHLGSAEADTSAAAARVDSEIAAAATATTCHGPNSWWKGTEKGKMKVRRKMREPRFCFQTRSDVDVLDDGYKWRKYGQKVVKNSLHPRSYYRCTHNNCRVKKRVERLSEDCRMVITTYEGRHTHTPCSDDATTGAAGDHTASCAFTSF
# Some of the results follow.
# Biological target: OsWRKY34 (Oryza sativa, UniProt Q0JBA9 1-250)
# Test: protein-binding microarray (RPBM); PBS, 2% BSA, 51.3 ng/ul salmon testes DNA, 50 uM zinc acetate, 200 nM TF, 25 C, 1 h; high values mean tight binding
# Conditions: protein: recombinant; tags: N-terminal polyhistidine and DsRed monomer fusion (pET32a); label: CyDye5-dUTP incorporated in the synthesized complementary strand; 3' TTTTT single-stranded linker to array surface; dsDNA, one strand shown
# In short: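 For the binding signal, per-feature fluorescence intensity was read in arbitrary units on an Axon 4000B scanner. Before scanning, a 2% BSA-blocked custom Agilent array made double-stranded with Cy5-dUTP was washed after 1 h at 25 °C with 200 nM protein and 50 µM zinc acetate. The proteins were Ni–NTA-purified transcription factors with N-terminal polyhistidine and DsRed fusions, expressed in E. coli BL21-CodonPlus.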
row,Sequence,binding signal
1,AACGCGATTCGTCCACGACCATGACATGCGATCACCCCACCGGAGTCACCTAGTGCAG,8610 fluorescence intensity (a.u.)
2,CACGTTTGCCATTTTCTCGGTTTGGACCATGCGTATAGGTCGGAGTCACCTAGTGCAG,9200 fluorescence intensity (a.u.)
3,GTCGCGGATGGTGGAAAGGGAGGCAGGGGTTGGGCCTTGGCGGAGTCACCTAGTGCAG,9760 fluorescence intensity (a.u.)
4,CCGCTGTGGGATTCTTGCCGATTCTTGCCGTCCAACCGCCCGGAGTCACCTAGTGCAG,9640 fluorescence intensity (a.u.)
5,CTGGTCCAGTCTTCTAAGATGCTCATAGGGATAGGGTTTGCGGAGTCACCTAGTGCAG,8300 fluorescence intensity (a.u.)
6,TTGTTTCCTCATGTTCGTCAATGCAATCAGGTTAATTAACCGGAGTCACCTAGTGCAG,8400 fluorescence intensity (a.u.)
7,TTTTATTTTAGCTTTCTTTTTACTTCATTCATACATACATCGGAGTCACCTAGTGCAG,8160 fluorescence intensity (a.u.)
8,CCGCTTCAGGCTGCTTCTCTCTCTCCCATCGCTATTGTTCCGGAGTCACCTAGTGCAG,10300 fluorescence intensity (a.u.)
9,ACGTGGGCCCGAAGCGCACTCTGGCCCCACATGCCAGTCACGGAGTCACCTAGTGCAG,8180 fluorescence intensity (a.u.)
10,TCCGTGCCCCGACGTTCCTCCACGATTACCTCCGGCTCTCCGGAGTCACCTAGTGCAG,10300 fluorescence intensity (a.u.)
11,TCGACCACCATTGCCCGTATTCCTCGGTGTCCATCTTTGACGGAGTCACCTAGTGCAG,10200 fluorescence intensity (a.u.)
12,CTGAAGATTGGATCTAAACTTTGTATCTAAACACAGCCATCGGAGTCACCTAGTGCAG,64300 fluorescence intensity (a.u.)
13,CGCCGAAAATACGAAATTTCAGATCCCGCCCGCCATCTCACGGAGTCACCTAGTGCAG,9620 fluorescence intensity (a.u.)
14,CCCACCCGCCAGTCTAATTGGGTAGACCCAGTCCAAAATACGGAGTCACCTAGTGCAG,8840 fluorescence intensity (a.u.)
15,CATTGAACGATGGAACAAAAAGCGGCAGCAAGCTGTTGACCGGAGTCACCTAGTGCAG,8150 fluorescence intensity (a.u.)
16,GTGGGATTCGCCTGCTTGCTTGCTGGGGCCTTGGGAAATGCGGAGTCACCTAGTGCAG,8230 fluorescence intensity (a.u.)
17,CTTATTCCTATCCGAAATTTCTCTCTTTGTTGTATGTTACCGGAGTCACCTAGTGCAG,14100 fluorescence intensity (a.u.)
18,CTATCTCTCTTGCTTCAGCCAACAGCTTGACCACCCTGCACGGAGTCACCTAGTGCAG,10200 fluorescence intensity (a.u.)
19,GGCACCGATCCAGCATATAGCTCCAAATACACTCTACTCTCGGAGTCACCTAGTGCAG,8690 fluorescence intensity (a.u.)
20,ACACTAACTTCATCTTCGATACTTTCTCCGTTTCGTATTACGGAGTCACCTAGTGCAG,9110 fluorescence intensity (a.u.)
21,CGCCACCCTGTTCCGCCGCCCGCTCCGCCGGCCTGCTCCGCGGAGTCACCTAGTGCAG,8270 fluorescence intensity (a.u.)

row,Sequence,binding signal
1,CTAATTGTTGATGTCATGTTGTTGGATACCTTTTTCCTTACGGAGTCACCTAGTGCAG,8610 fluorescence intensity (a.u.)
2,CGGTGTTGGGATCGGGTTTGGAGGTGGTAAGGGTGGTGGTCGGAGTCACCTAGTGCAG,10600 fluorescence intensity (a.u.)
3,CGTATGCACACCTCCTCAGCCTCGAGCTCCTTTGGAATGCCGGAGTCACCTAGTGCAG,9280 fluorescence intensity (a.u.)
4,TTTGCCTTTTGATTGTATGACTGGAATGCTTGTTGAGCTTCGGAGTCACCTAGTGCAG,8100 fluorescence intensity (a.u.)
5,CCGTCGTTTTCGTTCTCCTCTGCTTCGCCTCGGCCACGCTCGGAGTCACCTAGTGCAG,9690 fluorescence intensity (a.u.)
6,GCCTAGCCGCCGCCTTTATAGCCGCCGCCGGTCGTCGCCGCGGAGTCACCTAGTGCAG,8460 fluorescence intensity (a.u.)
7,TCCCTTCCTTCTTTGCCCCATACTACCATGGATTCCATTCCGGAGTCACCTAGTGCAG,8610 fluorescence intensity (a.u.)
8,GTCCTATCGCGTAGCCCACACTCCACCCTATCGCGCCTTCCGGAGTCACCTAGTGCAG,11500 fluorescence intensity (a.u.)
9,CTGCTTTCTACACTTGTTCCCTTTTGATTCAGCTTCTGTGCGGAGTCACCTAGTGCAG,9290 fluorescence intensity (a.u.)
10,GCTGCTGGTGGTGGTAGTAGGACTTGGGGCTCGTGTTGTGCGGAGTCACCTAGTGCAG,9720 fluorescence intensity (a.u.)
11,TCCCCACCAACTTGACCTCTACTCGTCACAGTGTCAAACTCGGAGTCACCTAGTGCAG,10200 fluorescence intensity (a.u.)
12,GTGTGGTGTGTGCTCCTATTTGCTCGTGATCAAGTATAACCGGAGTCACCTAGTGCAG,8500 fluorescence intensity (a.u.)
13,CTCTATGCTCGACTGAGCGGCCATGTTTTTCTCCGTTTCACGGAGTCACCTAGTGCAG,10600 fluorescence intensity (a.u.)
14,GGTTCTGTTCTATATACTCCGACACCATACTGATTAGTCTCGGAGTCACCTAGTGCAG,10900 fluorescence intensity (a.u.)
15,TAGTATAGAGGAGGGAGCGGGCGGGTGATTACAAGACGGACGGAGTCACCTAGTGCAG,8900 fluorescence intensity (a.u.)
16,GCATGTTTCTTCTCTTCTTCCTTTGCTCGGAAGTCTGTCTCGGAGTCACCTAGTGCAG,8200 fluorescence intensity (a.u.)
17,CGGTCGAGCCAGTGAACTCATCACGTTGACCCGGTCGCCACGGAGTCACCTAGTGCAG,8480 fluorescence intensity (a.u.)
18,ATAGGGACTACTCCTATATATGATTGTTGTTACTGTACTTCGGAGTCACCTAGTGCAG,8960 fluorescence intensity (a.u.)
19,AATTTCGCTATACCACAACGTGCACAATTGATACATTTCCCGGAGTCACCTAGTGCAG,10500 fluorescence intensity (a.u.)
20,GCTACTACTGCTGCTGCTGCTACTTATCCACCGCTTTTTTCGGAGTCACCTAGTGCAG,13600 fluorescence intensity (a.u.)
21,GAGAGAGTTACCAACTCATTTTTCACGTGCACGATTTTCACGGAGTCACCTAGTGCAG,8460 fluorescence intensity (a.u.)

row,Sequence,binding signal
1,CCACGCGCCCATCCACTCACCGGTCCATGCACCCGGTCTACGGAGTCACCTAGTGCAG,8740 fluorescence intensity (a.u.)
2,TCACTAAAGGCTAAAATCTAACATGTTGTAGTCTATTTATCGGAGTCACCTAGTGCAG,8070 fluorescence intensity (a.u.)
3,ATCATATTCCTACGTTTTCCTGTTGGTGCGGTTCAAAAAACGGAGTCACCTAGTGCAG,9250 fluorescence intensity (a.u.)
4,CGATCTGGCCACGGCACTCCGCTTCTCTCTTCTCCTCTACCGGAGTCACCTAGTGCAG,13700 fluorescence intensity (a.u.)
5,CTGCGCTGCCCGATTTCCATCCATCCCGCTTCCGCCTCCGCGGAGTCACCTAGTGCAG,10600 fluorescence intensity (a.u.)
6,ACCAGCTTTCTTTCTCGTGCTTTCCTCTTCTTCTTTTTTTCGGAGTCACCTAGTGCAG,10900 fluorescence intensity (a.u.)
7,GTAATCGCAGAGGCAGGTCATCGTCGGATTTGATCTTGACCGGAGTCACCTAGTGCAG,14400 fluorescence intensity (a.u.)
8,CTCCTAGGTGGCGTCGCCTTAGGTAGTGGTGGATGGGGAGCGGAGTCACCTAGTGCAG,10000 fluorescence intensity (a.u.)
9,AAGATAAATCATTCCACTACTGCTCTTCTCATATCTAACCCGGAGTCACCTAGTGCAG,9700 fluorescence intensity (a.u.)
10,ATGACTTTATAACATTTTTGCATCATCACACTTCATATAACGGAGTCACCTAGTGCAG,11100 fluorescence intensity (a.u.)
11,CACCACACGTACGCTACCTTATCAGATCCGAATCAGAATACGGAGTCACCTAGTGCAG,9980 fluorescence intensity (a.u.)
12,GCCCACGCACGGCTGGCCCTGCTTCTCACTCCTTTCTCTTCGGAGTCACCTAGTGCAG,9890 fluorescence intensity (a.u.)
13,CAGAGTCCACAGCAATGGTTTTTGGAGAGTTGTTCAGCCGCGGAGTCACCTAGTGCAG,8370 fluorescence intensity (a.u.)
14,ATCTTTGCAAAGTACTAGAGCATATTTCTGTCGTCAAGCACGGAGTCACCTAGTGCAG,8660 fluorescence intensity (a.u.)
15,CTCTTTCACTCGCTCACCTGCTCCATGCTCGTCCAGTACTCGGAGTCACCTAGTGCAG,9490 fluorescence intensity (a.u.)
16,CTATGGGCAAACTAATAGCTTCATCTTTTCGCTTATACTTCGGAGTCACCTAGTGCAG,9550 fluorescence intensity (a.u.)
17,CATTTTGTTTCTACTTTGAGTAATGTTGCTTCTGTTTATACGGAGTCACCTAGTGCAG,11100 fluorescence intensity (a.u.)
18,TTCCTGTGTTTTGTAATCCTCTGTTTTACAATTGTATTCCCGGAGTCACCTAGTGCAG,9820 fluorescence intensity (a.u.)
19,CATTTAATTATACGCCTCGCTCACTAGCTTAACTGCTAATCGGAGTCACCTAGTGCAG,8700 fluorescence intensity (a.u.)
20,CACCCGCCGCTGCTCTGCCTACTCGCCGGCCACCTCCTCACGGAGTCACCTAGTGCAG,15500 fluorescence intensity (a.u.)
21,TTTTCTTTTGTACTCTTCTCAATTGTTTATTACGACTGTTCGGAGTCACCTAGTGCAG,9860 fluorescence intensity (a.u.)

row,Sequence,binding signal
1,GTGTGTTCGTTTCTTTCTGGCCGTTGGATCGCGGATGGGCCGGAGTCACCTAGTGCAG,8700 fluorescence intensity (a.u.)
2,TAAAGCTGCTTGGTTTTGCTTCTGTAATCTGTACCACGTTCGGAGTCACCTAGTGCAG,9370 fluorescence intensity (a.u.)
3,TGTTCTGTGTTCGTGTTTGGGATTGGGCGCGGCGTGTGCCCGGAGTCACCTAGTGCAG,8470 fluorescence intensity (a.u.)
4,CTCTGTGTTCTTGGTGTTCCCTGTGCTGTTCTTGGGCAAGCGGAGTCACCTAGTGCAG,9330 fluorescence intensity (a.u.)
5,ATTGTTTTTGGTCATTGATCATCACTCTGGTTAACTGGTCCGGAGTCACCTAGTGCAG,8730 fluorescence intensity (a.u.)
6,TTCTAACTTTTCCGTCACATAAAATGTTTGGACACATATACGGAGTCACCTAGTGCAG,8460 fluorescence intensity (a.u.)
7,GCCCTACGCCGCCAAGCCCATGTTGCCCCTATGCCACCTGCGGAGTCACCTAGTGCAG,8350 fluorescence intensity (a.u.)
8,CGGGCGCACGTGTTTCATCCCTCTAATTCTGAATCCCCACCGGAGTCACCTAGTGCAG,8270 fluorescence intensity (a.u.)
9,ATATTTCAACAGACTTTTAAAAAAGTTTTTATTGTTTGACCGGAGTCACCTAGTGCAG,8380 fluorescence intensity (a.u.)
10,GTGTTTGCATTGGAAGAGTAATGTTTAGTACTAGTTTCTCCGGAGTCACCTAGTGCAG,8510 fluorescence intensity (a.u.)
11,TGTACTAGAATATGTCACATCCAGTCTTAGATTCGTTTTTCGGAGTCACCTAGTGCAG,9120 fluorescence intensity (a.u.)
12,TGTTGTTGCCGGAATGTGTGTGTGTGCGTGTGTGTGTGTGCGGAGTCACCTAGTGCAG,8720 fluorescence intensity (a.u.)
13,ATGTGTAATCAATATTTTTTTATGTGAAATTTGCACGTATCGGAGTCACCTAGTGCAG,8380 fluorescence intensity (a.u.)
14,CTTGCACGCGACGGCCTGGCATTTGTGTACGGCACCGCCCCGGAGTCACCTAGTGCAG,8030 fluorescence intensity (a.u.)
15,CGCCGCCTTTGCCACTATCGCTCCCTCCTCCAGCCGGATCCGGAGTCACCTAGTGCAG,10600 fluorescence intensity (a.u.)
16,ACTTGTGCCGATCTCGTGTAGTTTGAATTTTCCGCAAAACCGGAGTCACCTAGTGCAG,8230 fluorescence intensity (a.u.)
17,CACTACGATTATACTGTAATTACATCTATCAAATTTTTAACGGAGTCACCTAGTGCAG,8650 fluorescence intensity (a.u.)
18,TCATTGACTTTTCGATCAACGTTTGACCATTTGTTTTATTCGGAGTCACCTAGTGCAG,16700 fluorescence intensity (a.u.)
19,CAAAGCAATCTTGGAGTCATCTTCATTTCCATGTCCTGTTCGGAGTCACCTAGTGCAG,11600 fluorescence intensity (a.u.)
20,TCACACAGTCACTTGTTGGGTCTTTGCAATTGCTTTCCTCCGGAGTCACCTAGTGCAG,8610 fluorescence intensity (a.u.)
21,ATCTTAATTTTATGATATGACGTTTTATTCTGTACTATCTCGGAGTCACCTAGTGCAG,8930 fluorescence intensity (a.u.)

# 4 entries from above, set out differently:
row | Sequence | binding signal
1 | AACGCGATTCGTCCACGACCATGACATGCGATCACCCCACCGGAGTCACCTAGTGCAG | 8610 fluorescence intensity (a.u.)
9 | ACGTGGGCCCGAAGCGCACTCTGGCCCCACATGCCAGTCACGGAGTCACCTAGTGCAG | 8180 fluorescence intensity (a.u.)
8 | GTCCTATCGCGTAGCCCACACTCCACCCTATCGCGCCTTCCGGAGTCACCTAGTGCAG | 11500 fluorescence intensity (a.u.)
4 | CGATCTGGCCACGGCACTCCGCTTCTCTCTTCTCCTCTACCGGAGTCACCTAGTGCAG | 13700 fluorescence intensity (a.u.)
